# Primary screen of a compound library

Amino acid sequences for entries named in this document (tags omitted). Residues count along the entry.
UniProt Q8IDJ8, 1-583: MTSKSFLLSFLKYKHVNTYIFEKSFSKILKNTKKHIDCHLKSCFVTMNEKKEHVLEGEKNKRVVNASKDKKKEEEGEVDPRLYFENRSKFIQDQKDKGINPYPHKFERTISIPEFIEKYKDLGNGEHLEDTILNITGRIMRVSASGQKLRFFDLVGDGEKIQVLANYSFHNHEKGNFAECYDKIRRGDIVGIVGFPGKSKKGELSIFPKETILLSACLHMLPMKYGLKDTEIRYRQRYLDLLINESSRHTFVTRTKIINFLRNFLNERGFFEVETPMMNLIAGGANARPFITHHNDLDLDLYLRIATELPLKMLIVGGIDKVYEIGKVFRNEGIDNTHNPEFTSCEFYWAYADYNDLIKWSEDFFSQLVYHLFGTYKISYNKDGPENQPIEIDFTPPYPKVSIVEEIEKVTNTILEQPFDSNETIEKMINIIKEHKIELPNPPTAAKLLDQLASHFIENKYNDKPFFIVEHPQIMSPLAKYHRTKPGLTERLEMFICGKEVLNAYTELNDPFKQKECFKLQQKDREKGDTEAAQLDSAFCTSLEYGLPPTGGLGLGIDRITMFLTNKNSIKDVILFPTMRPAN
UniProt I6X8D2, whole entry: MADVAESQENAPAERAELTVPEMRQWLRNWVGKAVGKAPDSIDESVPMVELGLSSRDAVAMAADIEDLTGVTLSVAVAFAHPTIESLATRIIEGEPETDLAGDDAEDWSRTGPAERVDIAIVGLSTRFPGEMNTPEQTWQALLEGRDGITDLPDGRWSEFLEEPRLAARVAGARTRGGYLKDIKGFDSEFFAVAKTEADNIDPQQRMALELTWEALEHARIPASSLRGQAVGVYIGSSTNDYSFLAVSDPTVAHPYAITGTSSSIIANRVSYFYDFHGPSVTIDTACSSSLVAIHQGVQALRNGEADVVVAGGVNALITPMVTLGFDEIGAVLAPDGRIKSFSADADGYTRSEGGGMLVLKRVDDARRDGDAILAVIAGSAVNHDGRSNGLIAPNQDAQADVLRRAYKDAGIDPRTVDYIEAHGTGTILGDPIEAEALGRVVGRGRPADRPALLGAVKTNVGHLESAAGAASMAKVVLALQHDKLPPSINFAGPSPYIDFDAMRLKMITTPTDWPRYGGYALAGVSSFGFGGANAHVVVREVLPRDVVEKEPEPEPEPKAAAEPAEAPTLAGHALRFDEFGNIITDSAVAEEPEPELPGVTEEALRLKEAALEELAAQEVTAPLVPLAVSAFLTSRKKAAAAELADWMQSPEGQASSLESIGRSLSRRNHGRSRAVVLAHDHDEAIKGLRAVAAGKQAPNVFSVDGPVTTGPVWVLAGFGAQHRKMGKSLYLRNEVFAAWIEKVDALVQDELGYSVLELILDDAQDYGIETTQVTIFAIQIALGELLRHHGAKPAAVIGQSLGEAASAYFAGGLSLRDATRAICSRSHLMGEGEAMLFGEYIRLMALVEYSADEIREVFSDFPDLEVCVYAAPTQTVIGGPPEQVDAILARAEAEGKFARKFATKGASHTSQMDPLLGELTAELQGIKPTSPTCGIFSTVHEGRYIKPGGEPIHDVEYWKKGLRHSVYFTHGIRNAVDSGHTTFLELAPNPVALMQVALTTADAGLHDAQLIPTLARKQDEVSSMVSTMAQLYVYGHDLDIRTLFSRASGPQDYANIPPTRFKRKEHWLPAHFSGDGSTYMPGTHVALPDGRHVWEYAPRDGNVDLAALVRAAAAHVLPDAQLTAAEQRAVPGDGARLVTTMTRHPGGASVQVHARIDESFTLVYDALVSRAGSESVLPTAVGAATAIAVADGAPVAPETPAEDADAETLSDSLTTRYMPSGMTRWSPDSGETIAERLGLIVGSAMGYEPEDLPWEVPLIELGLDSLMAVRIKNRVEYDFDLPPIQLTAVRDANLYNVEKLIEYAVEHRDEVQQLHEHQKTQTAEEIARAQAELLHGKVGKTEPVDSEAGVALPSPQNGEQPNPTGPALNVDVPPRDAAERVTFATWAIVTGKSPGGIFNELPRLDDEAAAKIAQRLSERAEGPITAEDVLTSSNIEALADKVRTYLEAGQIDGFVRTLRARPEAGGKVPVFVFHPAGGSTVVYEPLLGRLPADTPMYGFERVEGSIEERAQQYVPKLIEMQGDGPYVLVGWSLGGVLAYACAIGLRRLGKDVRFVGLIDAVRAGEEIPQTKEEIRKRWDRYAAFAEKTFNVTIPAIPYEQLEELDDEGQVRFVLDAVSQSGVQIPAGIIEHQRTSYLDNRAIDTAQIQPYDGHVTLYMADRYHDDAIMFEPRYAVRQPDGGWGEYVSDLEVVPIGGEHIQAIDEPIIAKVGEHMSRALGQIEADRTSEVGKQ
UniProt P9WPC5, whole entry: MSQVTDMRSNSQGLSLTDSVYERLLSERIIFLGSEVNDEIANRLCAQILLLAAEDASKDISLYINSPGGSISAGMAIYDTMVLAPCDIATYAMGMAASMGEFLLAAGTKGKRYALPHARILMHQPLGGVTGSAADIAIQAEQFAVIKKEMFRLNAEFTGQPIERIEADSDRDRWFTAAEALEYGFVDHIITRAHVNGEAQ
UniProt P9WPC3, whole entry partner: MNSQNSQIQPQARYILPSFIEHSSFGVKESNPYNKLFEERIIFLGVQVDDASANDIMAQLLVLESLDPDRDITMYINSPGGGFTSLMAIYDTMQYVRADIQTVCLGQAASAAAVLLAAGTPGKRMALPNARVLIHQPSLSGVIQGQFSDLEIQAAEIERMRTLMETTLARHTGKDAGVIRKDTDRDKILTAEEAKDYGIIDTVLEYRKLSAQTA

Data taken from ChEMBL document CHEMBL3988442, “University of Dundee, Small-Polar-MMV Screening Library” (2021).

Results are given as percent effect. The record does not define 0% and 100%; most values in the screen are far below 50% and negative numbers occur (in some assays of this library far below -100). The compounds are a random part of those screened. A dash means the value is not listed here; it may have been measured.

PfKRS1: 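Lysine-tRNA ligase, Plasmodium falciparum 3D7 (UniProt Q8IDJ8). Enzyme assay of the cytosolic lysyl-tRNA synthetase in 384-well plates, read by luminescence. Compounds at 30 µM. Higher reads as stronger inhibition, judged from the few compounds that gave an IC50. About 69,000 compounds were tested under these conditions; 0.071% (about 49) showed 50% or more at least once.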
Pks13 thioesterase: 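Enzyme assay of the thioesterase domain of polyketide synthase 13; the read-out is not stated. Target: Polyketide synthase Pks13, Mycobacterium tuberculosis (UniProt I6X8D2). Compounds at 30 µM. The record gives no direction; the compounds picked for IC50 retests had high values, so higher reads as stronger inhibition. Of about 67,000 compounds tested this way, about 300 (0.46%) reached 50% or more in at least one test.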
ClpP1P2: 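ClpP1P2, Mycobacterium tuberculosis (UniProt P9WPC5 and UniProt P9WPC3). Protease assay of ClpP1P2, read by the AMC dye that it sets free. Compounds at 50 µM. Direction is inferred from only a few compounds that gave an IC50; most scored high, so higher reads as stronger inhibition. Most other retested compounds had strongly negative values. Of about 69,000 compounds tested this way, about 10 (0.015%) reached 50% or more in at least one test.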

structure	PfKRS1	Pks13 thioesterase	ClpP1P2
O=C(C1=CCCC1)N1CCO[C@H]2[C@@H](Oc3ccccn3)CC[C@@H]21	3.515	-16.89	7.705
CCOCCCNC(=O)c1cccn1Cc1cccnc1	3.285	-15.83	-6.475
Nc1cc2c(nn1)CCN(C(=O)c1ccc(Oc3cccnc3)cc1)C2	1.149	-	8.821
Cc1nc[nH]c1C(=O)N1CCC2(CC1)CN(CCN(C)C)C(=O)O2	2.989	-17.14	9.027
COCC(=O)NCCc1ccc(I)s1	9.922	-7.167	3.133
CCCC1(CO)CCCN(Cc2ncccn2)C1 (stereo not drawn)	6.088	-33.62	-1.965
Cn1c(Cn2ccnc2)nnc1C1CCN(C(=O)c2cccnc2)CC1	0.9752	-	30.14
O=C(O)c1ccnc(-c2ccnc(NCCc3ccc(F)cc3)n2)c1	3.087	-36.48	-8.502
O=C(Nc1cccn(Cc2ccc(F)cc2)c1=O)c1cnc[nH]1	2.581	-11.62	-0.3952
Cc1ncsc1C(=O)N1CCN(CCC(C)C)CC1	-3.71	0.4412	-10.58
N#CC1COCCN1S(=O)(=O)c1ccc(F)c(Br)c1 (stereo not drawn)	7.466	8.624	-0.2984
COc1ccc(CNc2nnc(CC(C)(C)C)o2)cc1C#N	4.165	-16.95	-5.385
CN(C)CCN1CC(C(=O)NCc2ccc(C#N)cc2)CC1=O (stereo not drawn)	1.379	-34.61	4.883
CCc1nnc2n1CCN(C(=O)c1ccc3[nH]cnc3c1)C2	2.333	-25.78	-9.495
CCc1nn(C)c(Cl)c1CN1CCN(c2ccc(C(N)=O)cn2)CC1	3.877	-31.88	-3.474
CCc1cnc(C)nc1NC(CC)c1ncnn1CC (stereo not drawn)	2.904	-25.37	3.85
CCC1CN(C(=O)c2ccc(=O)[nH]n2)CCC(=O)N1Cc1ccccc1 (stereo not drawn)	2.143	7.288	-2.425
CC(C)OCc1ccccc1CNC(=O)C(C)(C)C	4.224	-2.781	-6.654
CN(Cc1ccccn1)C(=O)[C@]12COC[C@H]1CN(Cc1cnn(C)c1)C2	-3.132	-19.87	-1.085
CCN(C)C(=O)c1coc(COc2ccccc2)n1	0.4592	6.534	-7.561
Cc1ccc(N(C)Cc2nnnn2C2CC2)c(C)c1	2.479	-19.75	-4.521
Cc1cc(NC(=O)N(Cc2ccc(C#N)cc2)C(C)C)no1	3.983	-6.267	11.48
CNS(=O)(=O)c1ccc(CN2CCN(Cc3ncccc3C)CC2)cc1	4.564	-18.58	7.36
Cc1cnn(CC2CCCN2c2ncnc3sccc23)c1 (stereo not drawn)	3.959	-24.16	-6.378
CC(NC(=O)N1CCCN(C)CC1)c1ccc2c(c1)OCCO2 (stereo not drawn)	6.007	-44.4	-3.586
O=C(c1cnccn1)N1CCCC(c2cccc(-n3ccnc3)n2)C1 (stereo not drawn)	0.5011	2.445	-6.741
CC1(C)C[C@H](CCNC(=O)c2ccncc2)c2ccccc2O1	3.46	12.94	1.048
Fc1ccccc1-c1cccc(C2CCCN(C3CCOCC3)C2)n1 (stereo not drawn)	-0.651	-0.3829	-0.9877
O=C1CN(C(=O)c2cc3c(F)cc(Br)cc3[nH]2)CCN1	-0.9128	0.4306	-11.64
CCOCC1CN(Cc2cccnc2OC)Cc2cnn(C)c21 (stereo not drawn)	0.0326	-	1.344
Cc1nn(C)c(N2CCOCC2)c1CNCc1ccoc1C	-0.6502	-11.99	-34.66
Cc1cnn(C2CN(CCCOc3ccc(C#N)cc3)C2)c1	5.34	-7.518	-8.563
CN(C)S(=O)(=O)NCC1OCCc2cn(CC3CCOCC3)nc21 (stereo not drawn)	-1.278	16.09	1.037
CN(C)C(=O)c1cnc(-c2ccc3c(c2)OCO3)s1	6.982	70.37	-168.6
CCc1nc(C2CCCN2CCCS(N)(=O)=O)no1 (stereo not drawn)	0.1406	-15.27	-23.09
O=C(NCc1cccnc1)[C@H]1CN2CCC1C[C@@H]2Cn1cc(CO)nn1 (stereo partly drawn)	9.357	-2.415	-12.35
Cc1ccccc1C(C)(C)CNC(=O)CN(C)c1cnccn1	4.869	-39.32	1.237
N#Cc1cccnc1NCc1ccc(S(=O)(=O)NC2CC2)cc1	11.93	-14.67	7.327
Cc1nc(C)n(CC2CCCN(Cc3cccc4c3OCCO4)C2)n1 (stereo not drawn)	-2.937	-	-24.15
CC(=O)N1CC2(CCN(C(=O)c3ccc4c(c3)OCCO4)CC2)C1	-4.979	-15.73	5.557
Fc1cccnc1Oc1cc(F)c(CN2CCCC2)c(F)c1	4.106	-3.049	8.692
Cc1ccc(-c2cn3c(n2)CO[C@@H](CNCc2nccs2)C3)cc1	0.1261	-8.149	-13.94
c1ccc(-n2ccc(CN3CCCCC3Cn3cncn3)n2)cc1 (stereo not drawn)	0.5947	-7.279	-16.33
OCCC1(NCc2ccc(-n3cccn3)cc2)CCOCC1	2.769	-10.5	-0.3484
CN(CCn1cnc(-c2ccccc2)c1-c1ncc[nH]1)S(C)(=O)=O	-1.715	-10.1	22.1
CCc1cnc(CN(C(C)=O)C2CCN(CCc3ccccn3)C2)o1 (stereo not drawn)	0.7766	-9.36	-33.53
CC(C)NC(=O)N1CCCn2cnc(CN3CCCC3=O)c2C1	-2.315	-40.19	-10.26
NC(=O)C1CCN(C(=O)NCc2ccccc2-n2cccn2)C1 (stereo not drawn)	2.22	-6.449	-25.6
CC(c1ccccn1)N(C)Cc1ccc(-n2ccnc2)cc1 (stereo not drawn)	2.166	-16.97	-0.8363

The last 6 entries again:

For OCCC1(NCc2ccc(-n3cccn3)cc2)CCOCC1 the result was PfKRS1: 2.769%; Pks13 thioesterase: -10.5%; ClpP1P2: -0.3484%.
For CN(CCn1cnc(-c2ccccc2)c1-c1ncc[nH]1)S(C)(=O)=O the result was PfKRS1: -1.715%; Pks13 thioesterase: -10.1%; ClpP1P2: 22.1%.
For CCc1cnc(CN(C(C)=O)C2CCN(CCc3ccccn3)C2)o1 (stereo not drawn) the result was PfKRS1: 0.7766%; Pks13 thioesterase: -9.36%; ClpP1P2: -33.53%.
For CC(C)NC(=O)N1CCCn2cnc(CN3CCCC3=O)c2C1 the result was PfKRS1: -2.315%; Pks13 thioesterase: -40.19%; ClpP1P2: -10.26%.
For NC(=O)C1CCN(C(=O)NCc2ccccc2-n2cccn2)C1 (stereo not drawn) the result was PfKRS1: 2.22%; Pks13 thioesterase: -6.449%; ClpP1P2: -25.6%.
For CC(c1ccccn1)N(C)Cc1ccc(-n2ccnc2)cc1 (stereo not drawn) the result was PfKRS1: 2.166%; Pks13 thioesterase: -16.97%; ClpP1P2: -0.8363%.